Measurements from the supplement of paper PMC10849652.
This is one part of the list.

Chains of the proteins cited; added tags and fusions are not shown. Lines headed by an entry give the natural chain unless they say otherwise; changes in a name come on top.
UniProt Q5SW79: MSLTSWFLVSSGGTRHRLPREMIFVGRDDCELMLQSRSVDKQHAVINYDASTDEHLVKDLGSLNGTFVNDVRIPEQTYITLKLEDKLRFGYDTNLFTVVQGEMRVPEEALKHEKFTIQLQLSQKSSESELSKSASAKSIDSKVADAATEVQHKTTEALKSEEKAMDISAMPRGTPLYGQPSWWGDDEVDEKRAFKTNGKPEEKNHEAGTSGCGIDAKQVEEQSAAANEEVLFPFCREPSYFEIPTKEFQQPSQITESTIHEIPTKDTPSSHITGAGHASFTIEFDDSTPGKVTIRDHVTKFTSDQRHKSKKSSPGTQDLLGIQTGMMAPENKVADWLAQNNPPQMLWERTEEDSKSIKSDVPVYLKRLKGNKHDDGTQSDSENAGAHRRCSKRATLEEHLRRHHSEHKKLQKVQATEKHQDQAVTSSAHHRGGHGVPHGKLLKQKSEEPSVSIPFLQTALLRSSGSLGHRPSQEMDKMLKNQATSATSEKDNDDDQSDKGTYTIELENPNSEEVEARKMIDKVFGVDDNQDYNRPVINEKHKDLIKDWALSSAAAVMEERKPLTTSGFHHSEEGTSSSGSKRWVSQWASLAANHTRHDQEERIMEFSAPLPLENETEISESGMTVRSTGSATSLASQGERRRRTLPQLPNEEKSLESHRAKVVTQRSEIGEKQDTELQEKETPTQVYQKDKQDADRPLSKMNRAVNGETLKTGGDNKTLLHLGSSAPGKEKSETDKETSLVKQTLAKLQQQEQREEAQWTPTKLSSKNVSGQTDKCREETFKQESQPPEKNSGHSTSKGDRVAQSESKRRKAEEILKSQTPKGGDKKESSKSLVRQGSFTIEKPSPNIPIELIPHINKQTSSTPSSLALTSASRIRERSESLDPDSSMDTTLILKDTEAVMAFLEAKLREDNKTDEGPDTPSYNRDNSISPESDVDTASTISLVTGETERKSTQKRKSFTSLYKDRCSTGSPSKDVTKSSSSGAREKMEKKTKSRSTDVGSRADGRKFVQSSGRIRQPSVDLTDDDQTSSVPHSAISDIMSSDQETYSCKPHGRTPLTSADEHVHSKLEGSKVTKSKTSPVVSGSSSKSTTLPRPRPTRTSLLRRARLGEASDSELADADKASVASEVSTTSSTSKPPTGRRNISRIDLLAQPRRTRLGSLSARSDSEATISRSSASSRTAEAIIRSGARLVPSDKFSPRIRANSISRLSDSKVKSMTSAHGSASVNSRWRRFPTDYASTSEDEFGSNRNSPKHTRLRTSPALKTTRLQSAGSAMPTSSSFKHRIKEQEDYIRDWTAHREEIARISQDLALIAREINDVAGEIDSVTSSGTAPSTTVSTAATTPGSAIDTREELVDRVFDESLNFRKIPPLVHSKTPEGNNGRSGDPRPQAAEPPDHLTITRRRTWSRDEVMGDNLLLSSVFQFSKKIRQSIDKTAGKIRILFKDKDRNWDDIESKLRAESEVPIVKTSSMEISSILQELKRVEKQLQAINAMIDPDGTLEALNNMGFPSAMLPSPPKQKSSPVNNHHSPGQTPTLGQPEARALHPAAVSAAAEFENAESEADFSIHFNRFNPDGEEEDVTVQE
UniProt Q13112, whole entry, looked up: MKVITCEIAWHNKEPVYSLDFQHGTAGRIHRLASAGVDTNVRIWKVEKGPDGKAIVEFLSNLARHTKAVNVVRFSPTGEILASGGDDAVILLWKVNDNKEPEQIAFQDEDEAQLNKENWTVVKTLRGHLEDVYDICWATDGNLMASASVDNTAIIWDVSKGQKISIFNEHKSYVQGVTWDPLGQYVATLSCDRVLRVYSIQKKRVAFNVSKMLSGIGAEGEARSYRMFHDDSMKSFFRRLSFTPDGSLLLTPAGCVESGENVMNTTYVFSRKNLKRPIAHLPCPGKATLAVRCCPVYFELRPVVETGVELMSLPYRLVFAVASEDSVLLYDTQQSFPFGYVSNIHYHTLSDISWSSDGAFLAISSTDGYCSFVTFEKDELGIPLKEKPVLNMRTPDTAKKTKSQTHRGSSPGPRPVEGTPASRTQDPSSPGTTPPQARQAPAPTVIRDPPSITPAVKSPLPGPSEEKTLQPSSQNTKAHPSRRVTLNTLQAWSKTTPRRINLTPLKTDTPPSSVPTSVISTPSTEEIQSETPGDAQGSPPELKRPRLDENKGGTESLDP
UniProt Q9UFW8: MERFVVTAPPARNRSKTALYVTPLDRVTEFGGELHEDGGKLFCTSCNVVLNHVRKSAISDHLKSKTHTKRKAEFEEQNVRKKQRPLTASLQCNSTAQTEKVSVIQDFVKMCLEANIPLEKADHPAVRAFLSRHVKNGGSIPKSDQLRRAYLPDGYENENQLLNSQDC
UniProt Q9Y6A4: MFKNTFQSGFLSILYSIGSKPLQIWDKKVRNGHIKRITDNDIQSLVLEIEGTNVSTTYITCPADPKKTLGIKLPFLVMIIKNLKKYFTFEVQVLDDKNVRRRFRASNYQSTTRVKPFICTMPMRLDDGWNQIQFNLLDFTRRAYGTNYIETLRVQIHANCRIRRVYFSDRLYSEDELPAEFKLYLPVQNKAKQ
UniProt Q8N5B7: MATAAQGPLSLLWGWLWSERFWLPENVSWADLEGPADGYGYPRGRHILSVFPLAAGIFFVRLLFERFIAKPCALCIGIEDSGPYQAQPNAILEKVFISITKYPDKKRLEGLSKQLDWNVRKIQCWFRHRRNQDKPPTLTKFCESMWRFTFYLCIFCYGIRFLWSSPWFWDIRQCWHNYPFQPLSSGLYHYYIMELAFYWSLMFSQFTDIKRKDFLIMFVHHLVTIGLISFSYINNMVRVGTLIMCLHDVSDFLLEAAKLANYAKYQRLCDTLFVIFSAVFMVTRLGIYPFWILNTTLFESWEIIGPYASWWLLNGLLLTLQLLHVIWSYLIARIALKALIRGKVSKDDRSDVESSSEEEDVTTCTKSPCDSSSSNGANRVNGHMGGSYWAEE
UniProt Q15517: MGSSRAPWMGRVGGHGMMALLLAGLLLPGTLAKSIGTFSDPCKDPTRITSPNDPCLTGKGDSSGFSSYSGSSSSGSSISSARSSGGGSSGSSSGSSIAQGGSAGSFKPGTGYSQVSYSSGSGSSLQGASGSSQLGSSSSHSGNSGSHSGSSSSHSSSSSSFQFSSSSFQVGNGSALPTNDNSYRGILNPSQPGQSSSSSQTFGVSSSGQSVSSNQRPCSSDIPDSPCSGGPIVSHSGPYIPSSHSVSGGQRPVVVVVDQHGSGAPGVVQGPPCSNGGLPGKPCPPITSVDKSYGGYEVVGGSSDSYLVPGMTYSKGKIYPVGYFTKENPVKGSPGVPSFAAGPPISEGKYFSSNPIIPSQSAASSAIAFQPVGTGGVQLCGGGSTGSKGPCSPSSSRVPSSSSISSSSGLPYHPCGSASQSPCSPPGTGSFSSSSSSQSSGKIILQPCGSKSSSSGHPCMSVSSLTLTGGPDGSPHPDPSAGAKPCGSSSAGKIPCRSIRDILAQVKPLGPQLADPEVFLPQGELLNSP
UniProt Q00534, whole entry, looked up: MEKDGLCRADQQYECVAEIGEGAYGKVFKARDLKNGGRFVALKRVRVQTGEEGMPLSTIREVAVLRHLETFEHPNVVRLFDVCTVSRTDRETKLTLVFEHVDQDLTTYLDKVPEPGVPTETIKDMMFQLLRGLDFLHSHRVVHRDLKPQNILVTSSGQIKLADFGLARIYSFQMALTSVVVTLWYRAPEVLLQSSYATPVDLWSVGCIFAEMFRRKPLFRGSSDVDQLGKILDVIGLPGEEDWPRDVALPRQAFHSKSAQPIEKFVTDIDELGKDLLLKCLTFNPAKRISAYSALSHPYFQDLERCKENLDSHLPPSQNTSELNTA
UniProt O15182: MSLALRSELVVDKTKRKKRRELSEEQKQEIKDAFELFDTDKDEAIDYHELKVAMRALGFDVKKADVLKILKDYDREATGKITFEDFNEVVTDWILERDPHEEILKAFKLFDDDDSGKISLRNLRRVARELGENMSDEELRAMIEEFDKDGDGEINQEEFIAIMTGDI
UniProt Q8N2Z9: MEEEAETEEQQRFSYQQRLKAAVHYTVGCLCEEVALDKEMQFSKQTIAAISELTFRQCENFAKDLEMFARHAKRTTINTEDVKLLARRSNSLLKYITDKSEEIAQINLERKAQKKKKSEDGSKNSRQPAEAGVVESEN
UniProt O95319: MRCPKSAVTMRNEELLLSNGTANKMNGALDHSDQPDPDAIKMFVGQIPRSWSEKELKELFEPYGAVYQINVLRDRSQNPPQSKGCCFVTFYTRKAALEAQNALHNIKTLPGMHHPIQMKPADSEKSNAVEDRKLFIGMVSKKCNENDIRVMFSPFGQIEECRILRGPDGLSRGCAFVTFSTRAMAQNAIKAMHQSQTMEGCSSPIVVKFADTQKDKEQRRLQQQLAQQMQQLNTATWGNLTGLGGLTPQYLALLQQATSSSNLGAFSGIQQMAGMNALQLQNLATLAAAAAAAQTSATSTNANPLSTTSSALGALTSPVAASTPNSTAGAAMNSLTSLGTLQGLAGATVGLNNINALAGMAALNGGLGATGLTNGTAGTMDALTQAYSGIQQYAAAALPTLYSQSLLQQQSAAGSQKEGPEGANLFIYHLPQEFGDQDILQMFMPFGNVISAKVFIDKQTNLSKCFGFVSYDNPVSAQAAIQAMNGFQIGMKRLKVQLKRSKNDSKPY
UniProt Q14839: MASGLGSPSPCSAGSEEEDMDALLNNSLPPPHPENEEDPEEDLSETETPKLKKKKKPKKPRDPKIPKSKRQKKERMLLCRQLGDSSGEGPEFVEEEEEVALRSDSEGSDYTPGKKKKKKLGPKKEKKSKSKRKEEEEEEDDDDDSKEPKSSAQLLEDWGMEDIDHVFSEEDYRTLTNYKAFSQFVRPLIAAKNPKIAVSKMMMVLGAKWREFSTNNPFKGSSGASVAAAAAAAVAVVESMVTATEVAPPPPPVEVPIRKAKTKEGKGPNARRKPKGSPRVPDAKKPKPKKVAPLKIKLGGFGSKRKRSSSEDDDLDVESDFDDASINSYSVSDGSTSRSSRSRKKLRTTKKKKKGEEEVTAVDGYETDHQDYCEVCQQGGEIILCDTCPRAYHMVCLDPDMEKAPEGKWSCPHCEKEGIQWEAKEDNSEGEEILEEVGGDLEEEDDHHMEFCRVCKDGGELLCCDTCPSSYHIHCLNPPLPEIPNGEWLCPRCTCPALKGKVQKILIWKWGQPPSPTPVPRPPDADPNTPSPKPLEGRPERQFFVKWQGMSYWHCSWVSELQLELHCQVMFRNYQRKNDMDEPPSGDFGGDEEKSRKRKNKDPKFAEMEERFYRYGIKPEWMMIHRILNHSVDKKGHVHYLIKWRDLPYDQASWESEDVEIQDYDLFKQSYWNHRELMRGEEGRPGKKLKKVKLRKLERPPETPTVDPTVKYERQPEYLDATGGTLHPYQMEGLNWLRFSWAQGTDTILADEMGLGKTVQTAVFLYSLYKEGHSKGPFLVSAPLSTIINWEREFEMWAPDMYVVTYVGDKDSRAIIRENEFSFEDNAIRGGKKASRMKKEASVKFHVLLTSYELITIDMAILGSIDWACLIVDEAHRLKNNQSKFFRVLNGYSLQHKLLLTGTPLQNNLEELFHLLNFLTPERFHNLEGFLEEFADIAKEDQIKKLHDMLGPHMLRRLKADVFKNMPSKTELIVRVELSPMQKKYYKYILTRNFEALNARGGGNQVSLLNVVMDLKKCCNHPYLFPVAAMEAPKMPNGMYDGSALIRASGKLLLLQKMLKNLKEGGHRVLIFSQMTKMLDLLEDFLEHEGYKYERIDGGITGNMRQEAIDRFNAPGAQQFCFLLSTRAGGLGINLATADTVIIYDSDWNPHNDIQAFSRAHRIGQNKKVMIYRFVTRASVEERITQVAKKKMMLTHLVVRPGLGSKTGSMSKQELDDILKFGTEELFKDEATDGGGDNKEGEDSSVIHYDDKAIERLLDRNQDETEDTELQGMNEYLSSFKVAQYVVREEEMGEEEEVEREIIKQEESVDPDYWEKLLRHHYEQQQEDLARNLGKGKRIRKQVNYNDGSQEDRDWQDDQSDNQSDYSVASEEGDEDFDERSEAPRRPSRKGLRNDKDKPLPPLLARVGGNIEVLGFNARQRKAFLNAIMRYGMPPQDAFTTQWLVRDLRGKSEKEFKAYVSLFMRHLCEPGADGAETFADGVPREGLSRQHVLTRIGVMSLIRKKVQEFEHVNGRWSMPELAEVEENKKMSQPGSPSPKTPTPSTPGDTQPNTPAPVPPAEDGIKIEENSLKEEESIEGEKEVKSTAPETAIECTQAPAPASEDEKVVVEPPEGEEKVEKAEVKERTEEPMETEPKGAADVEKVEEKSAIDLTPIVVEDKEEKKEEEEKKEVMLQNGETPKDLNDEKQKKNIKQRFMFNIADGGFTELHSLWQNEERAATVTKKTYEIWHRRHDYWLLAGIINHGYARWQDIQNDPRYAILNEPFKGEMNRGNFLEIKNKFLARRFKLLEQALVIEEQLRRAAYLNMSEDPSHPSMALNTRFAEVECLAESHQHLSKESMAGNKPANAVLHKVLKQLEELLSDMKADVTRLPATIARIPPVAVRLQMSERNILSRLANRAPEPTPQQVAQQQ

Key:
Test in all cases: log2 fold change, soluble protein after heating vs DMSO (PISA); higher = thermal stabilisation; K562 cells, 10 uM, 30 min; active = over 0.2 and 3.5 SD of the protein, either way, in both replicates (recomputed)
[1] = compound: CS(=O)(=O)c1ccc(-c2cnc(N)c(C(=O)Nc3ccccc3)n2)cc1
Method in brief: (§1)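 K562 cells at 2×10^6 cells/mL were exposed to 10 μM compound for 30 min, then aliquots were heated for 3 min across 48°C-58°C, pooled, and extracted in PBS containing 0.5% NP-40 at 4°C. The supernatant after 21,000xg for 90 min was taken as soluble protein and measured by TMTpro 16plex LC-MS/MS with channel sums equalised. Thermal stability is reported relative to control samples, with values from duplicates. Fold changes are given on a log2 scale.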

crizotinib = compound: C[C@@H](Oc1cc(-c2cnn(C3CCNCC3)c2)cnc1N)c1c(Cl)ccc(F)c1Cl [crizotinib]
Method in brief: as §1

[2] = compound: C[C@@H]1COCCN1C2=NC(=NC(=C2)C3(CC3)S(=O)(=O)C)C4=C5C=CNC5=CC=C4
Method in brief: as §1

[3] = compound: C[C@H](C1=CC=C(C=C1)C(=O)NC2=C3C=CNC3=NC=C2)N
Method in brief: as §1

duvelisib = compound: C[C@H](Nc1ncnc2nc[nH]c12)c1cc2cccc(Cl)c2c(=O)n1-c1ccccc1 [duvelisib]
Method in brief: as §1

gandotinib = compound: Cc1cc(Nc2cc(CN3CCOCC3)c3nc(C)c(Cc4ccc(Cl)cc4F)n3n2)n[nH]1 [gandotinib]
Method in brief: as §1

tozasertib = compound: Cc1cc(Nc2cc(N3CCN(C)CC3)nc(Sc3ccc(NC(=O)C4CC4)cc3)n2)n[nH]1 [tozasertib]
Method in brief: as §1

[4] = compound: Cc1cc(SCc2sc(-c3ccc(C(F)(F)F)cc3)nc2C)ccc1OCC(=O)O
Method in brief: as §1

doramapimod = compound: Cc1ccc(-n2nc(C(C)(C)C)cc2NC(=O)Nc2ccc(OCCN3CCOCC3)c3ccccc23)cc1 [doramapimod]
Method in brief: as §1

ispinesib = compound: Cc1ccc(C(=O)N(CCCN)[C@@H](c2nc3cc(Cl)ccc3c(=O)n2Cc2ccccc2)C(C)C)cc1 [ispinesib]
Method in brief: as §1

bafetinib = compound: Cc1ccc(NC(=O)c2ccc(CN3CC[C@H](N(C)C)C3)c(C(F)(F)F)c2)cc1Nc1nccc(-c2cncnc2)n1 [bafetinib]
Method in brief: as §1

[5] = compound: Cc1cccc(CC(=O)N2CCc3c2ccc(-c2cn(C)c4ncnc(N)c24)c3F)n1
Method in brief: as §1

nilotinib = compound: Cc1cn(-c2cc(NC(=O)c3ccc(C)c(Nc4nccc(-c5cccnc5)n4)c3)cc(C(F)(F)F)c2)cn1 [nilotinib]
Method in brief: as §1

[6] = compound: Cc1nc(Nc2n[nH]c3c2CN(C(=O)N[C@H](CN(C)C)c2ccccc2)C3(C)C)c2sccc2n1
Method in brief: as §1

dasatinib = compound: Cc1nc(Nc2ncc(C(=O)Nc3c(C)cccc3Cl)s2)cc(N2CCN(CCO)CC2)n1 [dasatinib]
Method in brief: as §1

[7] = compound: Cc1ncc(-c2ccnc(Nc3ccc(S(C)(=O)=O)cc3)n2)n1C(C)C
Method in brief: as §1

[8] = compound: Cn1cc(-c2ccc3c(c2)CCN3C(=O)Cc2cccc(C(F)(F)F)c2)c2c(N)ncnc21
Method in brief: as §1

[9] = compound: Cn1cc(-c2ccc3nnc(C(F)(F)c4ccc5ncccc5c4)n3n2)cn1
Method in brief: as §1

tipifarnib = compound: Cn1cncc1[C@@](N)(c1ccc(Cl)cc1)c1ccc2c(c1)c(-c1cccc(Cl)c1)cc(=O)n2C [tipifarnib]
Method in brief: as §1

mubritinib = compound: FC(F)(F)c1ccc(/C=C/c2nc(COc3ccc(CCCCn4ccnn4)cc3)co2)cc1 [mubritinib]
Method in brief: as §1

Target | log2 fold change [1] | log2 fold change (crizotinib) | log2 fold change [2] | log2 fold change [3] | log2 fold change (duvelisib) | log2 fold change (gandotinib) | log2 fold change (tozasertib) | log2 fold change [4] | log2 fold change (doramapimod) | log2 fold change (ispinesib) | log2 fold change (bafetinib) | log2 fold change [5] | log2 fold change (nilotinib) | log2 fold change [6] | log2 fold change (dasatinib) | log2 fold change [7] | log2 fold change [8] | log2 fold change [9] | log2 fold change (tipifarnib) | log2 fold change (mubritinib)
CHMP2A (UniProt O43633) | inactive: -0.01 | inactive: -0.051 | inactive: 0.013 | inactive: -0.104 | inactive: 0.006 | inactive: -0.053 | inactive: -0.004 | inactive: 0.005 | inactive: -0.007 | inactive: 0 | inactive: -0.013 | inactive: 0.035 | inactive: 0.021 | inactive: -0.004 | inactive: -0.005 | inactive: 0.004 | inactive: 0.007 | inactive: 0.027 | inactive: 0.009 | inactive: 0.066
CEP170 (UniProt Q5SW79) | inactive: 0.009 | inactive: -0.12 | inactive: -0.098 | inactive: 0.166 | inactive: -0.085 | inactive: 0.057 | inactive: -0.04 | inactive: -0.016 | inactive: 0.203 | inactive: -0.169 | inactive: 0.079 | inactive: -0.012 | inactive: 0.117 | inactive: -0.052 | inactive: 0.035 | inactive: -0.175 | inactive: -0.056 | inactive: -0.04 | inactive: 0.066 | inactive: -0.05
CHAF1B (UniProt Q13112) | inactive: -0.011 | inactive: 0.035 | inactive: 0.068 | inactive: -0.017 | inactive: 0.02 | inactive: -0.002 | inactive: -0.028 | inactive: -0.061 | inactive: 0.004 | inactive: 0.003 | inactive: -0.046 | inactive: -0.061 | inactive: 0.002 | inactive: 0.005 | inactive: 0.019 | inactive: -0.002 | inactive: 0 | inactive: 0.024 | inactive: 0.015 | inactive: 0.013
CGGBP1 (UniProt Q9UFW8) | inactive: -0.068 | inactive: -0.033 | inactive: -0.05 | inactive: -0.002 | inactive: -0.036 | inactive: 0.088 | inactive: 0.056 | inactive: -0.068 | inactive: 0.018 | inactive: -0.084 | inactive: -0.027 | inactive: 0.025 | inactive: 0 | inactive: 0.004 | inactive: 0.004 | inactive: -0.014 | inactive: -0.024 | inactive: -0.053 | inactive: 0.066 | inactive: 0.058
CFAP20 (UniProt Q9Y6A4) | inactive: 0.003 | inactive: 0.033 | inactive: -0.168 | inactive: 0.113 | inactive: -0.029 | inactive: 0.062 | inactive: 0.072 | inactive: 0.01 | inactive: 0.117 | inactive: -0.101 | inactive: 0.048 | inactive: 0.013 | inactive: 0.023 | inactive: -0.102 | inactive: 0.049 | inactive: -0.048 | inactive: -0.156 | inactive: -0.053 | inactive: -0.029 | inactive: -0.109
CERS5 (UniProt Q8N5B7) | inactive: -0.044 | inactive: -0.038 | inactive: 0.005 | inactive: 0.028 | inactive: 0.16 | inactive: -0.148 | inactive: 0.06 | inactive: 0.042 | inactive: -0.061 | inactive: -0.114 | inactive: -0.025 | inactive: -0.032 | inactive: -0.008 | inactive: 0.026 | inactive: -0.048 | inactive: 0.078 | inactive: 0.013 | inactive: 0.059 | inactive: 0.009 | inactive: 0.039
CFL2 (UniProt Q9Y281) | inactive: 0.065 | inactive: 0.083 | inactive: 0.099 | inactive: -0.089 | inactive: 0.099 | inactive: 0.01 | inactive: 0.061 | inactive: 0.031 | inactive: -0.016 | inactive: 0.168 | inactive: -0.007 | inactive: 0.017 | inactive: 0.042 | inactive: 0.041 | inactive: 0.006 | inactive: -0.01 | inactive: 0.087 | inactive: 0.028 | inactive: -0.041 | inactive: 0.03
CENPO (UniProt Q9BU64) | inactive: -0.056 | inactive: -0.037 | inactive: 0.044 | inactive: -0.029 | inactive: 0.074 | – | inactive: -0.018 | inactive: -0.077 | inactive: 0.097 | inactive: 0.042 | inactive: -0.002 | – | inactive: -0.439 | inactive: -0.358 | inactive: -0.08 | inactive: 0.169 | inactive: -0.234 | inactive: 0.161 | inactive: 0.057 | inactive: -0.2
CDSN (UniProt Q15517) | inactive: 0.045 | inactive: -0.08 | inactive: 0.093 | inactive: -0.113 | inactive: -0.255 | inactive: 0.156 | inactive: 0.111 | inactive: -0.533 | inactive: -0.126 | – | inactive: 0.298 | inactive: 0.357 | inactive: 0.072 | inactive: 0.012 | inactive: -0.956 | inactive: 0.283 | inactive: 0.928 | – | inactive: 0.275 | inactive: -0.379
CHCHD2 (UniProt Q9Y6H1) | inactive: 0 | inactive: 0.161 | inactive: -0.017 | inactive: -0.075 | – | inactive: -0.107 | – | inactive: -0.016 | inactive: -0.037 | inactive: 0.066 | inactive: -0.026 | inactive: -0.002 | inactive: 0.037 | inactive: 0.029 | inactive: 0.075 | inactive: -0.086 | inactive: 0.116 | inactive: -0.02 | inactive: -0.06 | inactive: 0.04
CEP350 (UniProt Q5VT06) | inactive: -0.01 | inactive: -0.013 | inactive: -0.015 | inactive: 0.263 | inactive: -0.077 | inactive: 0.287 | inactive: 0.148 | inactive: 0.131 | inactive: 0.33 | inactive: 0.067 | – | inactive: 0.064 | inactive: -0.065 | inactive: -0.169 | inactive: 0 | inactive: 0.017 | inactive: -0.095 | inactive: 0.149 | inactive: -0.035 | inactive: 0.063
CDK6 (UniProt Q00534) | inactive: 0.062 | inactive: -0.033 | inactive: -0.042 | inactive: -0.004 | – | inactive: -0.009 | – | inactive: -0.012 | inactive: 0.018 | inactive: 0.024 | inactive: -0.017 | inactive: -0.002 | inactive: -0.021 | inactive: -0.079 | inactive: -0.01 | inactive: 0.081 | inactive: -0.019 | inactive: -0.033 | inactive: -0.043 | inactive: 0.012
CETN3 (UniProt O15182) | inactive: -0.018 | inactive: 0.014 | inactive: -0.084 | inactive: -0.071 | – | inactive: 0.094 | – | inactive: -0.094 | inactive: -0.018 | inactive: 0 | inactive: -0.052 | active: -0.249 | inactive: -0.051 | inactive: 0.04 | inactive: 0.068 | inactive: -0.013 | inactive: -0.026 | inactive: -0.006 | inactive: 0.086 | inactive: 0.112
CENPS (UniProt Q8N2Z9) | inactive: 0.047 | inactive: 0.061 | inactive: 0.024 | inactive: 0.056 | inactive: 0.1 | inactive: -0.008 | inactive: 0.028 | inactive: 0.012 | inactive: -0.11 | – | inactive: -0.044 | inactive: 0.124 | inactive: -0.075 | inactive: -0.003 | inactive: -0.127 | inactive: -0.017 | inactive: 0.082 | – | inactive: 0.006 | inactive: 0.053
CFAP97 (UniProt Q9P2B7) | inactive: -0.144 | inactive: -0.045 | inactive: -0.155 | inactive: 0.069 | inactive: 0.005 | inactive: -0.145 | inactive: 0 | inactive: 0.042 | inactive: 0.091 | inactive: -0.044 | inactive: 0.048 | inactive: 0 | – | – | inactive: 0.077 | – | inactive: -0.078 | inactive: -0.156 | inactive: -0.069 | –
CELF2 isoform 3 (UniProt O95319) | inactive: -0.107 | inactive: 0.098 | inactive: 0.006 | inactive: -0.038 | – | inactive: -0.027 | – | inactive: 0.102 | inactive: 0.05 | inactive: -0.066 | inactive: 0.014 | inactive: -0.005 | inactive: -0.001 | inactive: 0.013 | inactive: -0.005 | inactive: 0.079 | inactive: -0.022 | inactive: -0.059 | inactive: -0.062 | inactive: -0.006
CHD4 isoform 2 (UniProt Q14839) | inactive: -0.02 | inactive: -0.08 | inactive: 0.098 | inactive: 0.057 | – | inactive: -0.009 | – | inactive: 0.186 | inactive: 0.014 | inactive: -0.05 | inactive: 0.068 | inactive: -0.018 | inactive: -0.143 | inactive: -0.267 | inactive: -0.059 | inactive: -0.137 | inactive: -0.063 | inactive: -0.002 | inactive: -0.083 | inactive: -0.06

As a working copy, some entries already given.
Target | log2 fold change [1] | log2 fold change (crizotinib) | log2 fold change [2] | log2 fold change [3] | log2 fold change (duvelisib) | log2 fold change (gandotinib) | log2 fold change (tozasertib) | log2 fold change [4] | log2 fold change (doramapimod) | log2 fold change (ispinesib) | log2 fold change (bafetinib) | log2 fold change [5] | log2 fold change (nilotinib) | log2 fold change [6] | log2 fold change (dasatinib) | log2 fold change [7] | log2 fold change [8] | log2 fold change [9] | log2 fold change (tipifarnib) | log2 fold change (mubritinib)
CDSN (UniProt Q15517) | inactive: 0.045 | inactive: -0.08 | inactive: 0.093 | inactive: -0.113 | inactive: -0.255 | inactive: 0.156 | inactive: 0.111 | inactive: -0.533 | inactive: -0.126 | – | inactive: 0.298 | inactive: 0.357 | inactive: 0.072 | inactive: 0.012 | inactive: -0.956 | inactive: 0.283 | inactive: 0.928 | – | inactive: 0.275 | inactive: -0.379
CHCHD2 (UniProt Q9Y6H1) | inactive: 0 | inactive: 0.161 | inactive: -0.017 | inactive: -0.075 | – | inactive: -0.107 | – | inactive: -0.016 | inactive: -0.037 | inactive: 0.066 | inactive: -0.026 | inactive: -0.002 | inactive: 0.037 | inactive: 0.029 | inactive: 0.075 | inactive: -0.086 | inactive: 0.116 | inactive: -0.02 | inactive: -0.06 | inactive: 0.04
